This test is described as follows: qHTS Assay to Find Inhibitors of Chronic Active B-Cell Receptor Signaling. As to conditions: ABC-DLBCL IkBa-CBG/CBR reporter, luminescence ratio (green luciferase fused to IkBa over red control in TMD8 lymphoma cells), 4 h. A digest of the protocol: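 TMD8 human ABC-DLBCL cells with doxycycline-inducible IκBα–green luciferase fusion and unfused red luciferase, in 0.5% FBS medium; compounds up to 46 uM, 4 h at 37C. Green/red luminescence ratio, filter-overlap corrected, fitted to concentration-response curves.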
On the technique in general: In qHTS, concentration-response curves come from the screen itself.

Setting [1] is: measured here: CBR red luminescence, cell number.
[2] abbreviates: measured here: IkBa-CBG green luminescence.

Each structure is given as a SMILES string. The list shows a part of the results. Shown are side measurements of this screen, not its main read-out; they come without a call. Most of these compounds were active or inconclusive in the main read-out, so they are no random draw. Words in brackets tell the shape of the fitted curve; partial curves, single points and poor fits give uncertain potencies.

One may read the AC50 as the concentration at which the activity in the assay is half-maximal. Regarding `CS(=O)(=O)N(CC(=O)Nc1ccccc1C(=O)NCc1ccco1)c1ccc2c(c1)OCCO2`, the half-maximal activity concentration (AC50) under setting [1] is 29.1 µM [falling, single point]. Consider `COc1cc(C(Nc2ccccn2)c2ccc3ccc(C)nc3c2O)cc(OC)c1O` (configuration not stated), for which the AC50 under setting [1] is 2.24 µM [falling, full curve, poor fit]. As for `O=C(Nc1ccccc1O)c1ccc([N+](=O)[O-])cc1`, the AC50 under setting [1] was 7.94 µM [falling, partial curve]. Still for that read-out and setting: with `Cc1cccc(NC(=O)c2ccc(C3SCC(=O)N3CCc3ccccc3)cc2)c1C` (configuration not stated) the figure was 5.8 µM [falling, partial curve, poor fit]; with `CC(C)CNC(=O)c1ccccc1NC(=O)c1ccc(CSc2ccccc2)cc1`, 16.4 µM [rising, partial curve]; with `O=C(/C=C/c1cccc(O)c1)c1cccnc1`, 14.1 µM [falling, partial curve, poor fit]. As for `S=c1nn[nH]n1C12CC3CC(CC(C3)C1)C2`, the AC50 under setting [1] is 11.6 µM [rising, partial curve] and the AC50 under setting [2] was 8.2 µM [falling, partial curve]. Take `O=C(CC1Nc2cccc3cccc(c23)NC1=O)Nc1ccccc1` (configuration not stated): the AC50 under setting [1] was 0.58 µM [falling, full curve]. As for `CCc1ccc(OCC(=O)NNC(=O)Cc2ccc(S(=O)(=O)N3CCOCC3)s2)cc1`, the AC50 under setting [1] is 29.1 µM [rising, single point]. With `O=c1[nH]c2ccccc2cc1CN(Cc1ccco1)S(=O)(=O)c1ccc(F)cc1`, the AC50 under setting [1] is 11.2 µM [falling, partial curve]. In the case of `COc1cccc(/C=N/n2cnc3ccccc32)c1OC`, under setting [1], the AC50 was 2.91 µM [rising, partial curve]. Turning to `CCc1cc2c(SCC(=O)NC3CC3)ncnc2s1`, the AC50 was 29.1 µM [rising, single point] under setting [1] and 23.1 µM [falling, partial curve] under setting [2]. Turning to `O=C(Nc1cccc(S(=O)(=O)NC2=NCCCCC2)c1)c1ccc(Cl)cc1`, the AC50 under setting [1] is 7.31 µM [falling, single point].

Take `Cc1cc(NC(=O)c2cccs2)no1`: the AC50 under setting [1] is 14.1 µM [falling, single point]. On to `S=C(NCCC(c1ccccc1)c1ccccc1)Nc1ccccc1Cl`, for which, under setting [1], the AC50 is 8.91 µM [falling, partial curve, poor fit].

As to `Cc1ccccc1C(=O)Nc1nnc(-c2cccnc2)o1`, the AC50 under setting [1] was 8.91 µM [falling, partial curve, poor fit]. As for `COc1ccccc1/C=C/C(=O)Nc1cccc(S(=O)(=O)NC2=NCCCCC2)c1`, the AC50 under setting [1] was 2 µM [falling, full curve].

Regarding `COc1ccc(C(=O)NNC(=O)C2CC=CCC2)cc1` (configuration not stated), under setting [1], the AC50 is 11.2 µM [falling, partial curve, poor fit]. For the compound `Cc1ccc(C)c(NC(=O)COC(=O)c2ccc3ccccc3n2)c1`, under setting [1], the AC50 was 2.59 µM [falling, partial curve, poor fit].

As to `CC(=O)Nc1cccc(C(=O)OC(C)C(=O)NCc2ccc3c(c2)OCO3)c1` (configuration not stated), the AC50 under setting [1] is 16.4 µM [rising, partial curve, poor fit].

In the case of `Cn1nc(-c2ccccc2)c2cc(C(=O)O)sc21`, the AC50 under setting [1] is 20 µM [falling, single point].

With `O=C(CCCOc1ccc(Cl)cc1Cl)Nc1ccncc1`, under setting [1], the AC50 was 2.31 µM [rising, partial curve, poor fit].

Take `Cc1occc1C(=O)NNC(=O)NC12CC3CC(CC(C3)C1)C2`: the AC50 under setting [1] was 2.06 µM [falling, partial curve, poor fit]. As to `NC(=S)N/N=C/c1coc2ccc(F)cc2c1=O`, the AC50 under setting [1] was 35.5 µM [rising, partial curve, poor fit].

`O=C1SC(Cc2ccccc2)C(=O)N1c1ccccc1` (configuration not stated): the AC50 under setting [1] is 15.8 µM [rising, single point]. For `O=C(O)c1ccc(OS(=O)(=O)c2ccc(Cl)s2)cc1`, the AC50 under setting [1] is 6.51 µM [rising, single point].

For the compound `COc1cc(Nc2nc3ccccc3n3nnnc23)cc(OC)c1OC`, the AC50 under setting [1] was 11.2 µM [falling, partial curve].

For `CN(C)/C=C1\C=C2C(=O)c3ccccc3N2C1=O`, under setting [1], the AC50 was 12.6 µM [falling, partial curve].

`N#CC1=C(SCC(=O)c2cc3ccccc3oc2=O)NC(=O)C(C#N)C12CCCC2` (configuration not stated): under setting [1], the AC50 was 0.651 µM [falling, full curve, poor fit]. Regarding `COc1ccc(N2CCN(c3cnc4ccccc4n3)CC2)cc1`, the AC50 under setting [1] was 0.316 µM [rising, full curve, poor fit]. `CCN(CC)CC(=O)c1ccc(-c2ccccc2)cc1`: the concentration at half-maximal activity (AC50) under setting [1] was 18.4 µM [falling, single point]. Same read-out and setting: in the case of `CS(=O)(=O)c1ccc(C(=O)OCC(=O)NC(=O)C2CCCCC2)cc1[N+](=O)[O-]` it was 10 µM [falling, partial curve, poor fit]; in that of `CCOC(=O)Cc1csc(NC(=O)c2ccc3c(c2)OCO3)n1`, 10.3 µM [falling, partial curve]. As for `O=C1CN(C(=O)COC(=O)C23CC4CC(CC(O)(C4)C2)C3)c2ccccc2N1`, the AC50 under setting [1] was 4.11 µM [rising, single point]. Still for that read-out and setting: with `CC(C)Cn1nc(NC(=O)C2CCCO2)c2cc3ccccc3nc21` (configuration not stated) the figure was 12.6 µM [falling, partial curve]; with `CCOC(=O)C1CCN(C(=O)CSc2nc3ncccc3[nH]2)CC1`, 35.5 µM [falling, single point].

In the case of `COC(=O)CSc1nc(COc2ccccc2)nc2ccccc12`, the AC50 under setting [1] is 11.2 µM [falling, partial curve, poor fit].

On to `O=C(O)C1CC=CCC1C(=O)Nc1ccc(F)c(F)c1` (configuration not stated), for which the AC50 under setting [1] was 23.1 µM [rising, partial curve, poor fit]. With `CC(=O)c1c(C)[nH]c(C(=O)OCc2ccccc2F)c1C`, the AC50 under setting [1] is 1.58 µM [rising, partial curve, poor fit]. With `O=C(N/N=C/c1ccc([N+](=O)[O-])s1)C(O)c1ccccc1` (configuration not stated), under setting [1], the AC50 is 29.1 µM [falling, single point]. The same measure, in the same setting: in the case of `O=[N+]([O-])c1ccc2c(c1)nnn2-c1ccccc1` it was 35.5 µM [rising, single point]; in that of `O=S(=O)(c1ccc(N2CCOCC2)c(Cl)c1)N1CCOCC1`, 11.2 µM [falling, single point]; in that of `O=C(NCCCn1ccnc1)c1cc2nc(-c3ccc(Br)cc3)cc(C(F)(F)F)n2n1`, 16.4 µM [rising, single point].

As for `CC(NC(=O)COC(=O)CCC(=O)c1ccc(Cl)cc1)c1ccccc1` (configuration not stated), under setting [1], the AC50 was 29.1 µM [rising, single point]. For the compound `COc1ccc(C(=O)Nc2cc(Cl)ccc2Cl)c(OC)n1`, the AC50 under setting [1] is 29.1 µM [rising, single point].

For `COc1ccc(NS(=O)(=O)c2cc(NC(=O)[C@@H](NC(N)=O)C(C)C)ccc2C)cc1`, under setting [1], the concentration at half-maximal activity (AC50) was 0.1 µM [rising, full curve, poor fit]. In the case of `COc1cccc(C2c3[nH]c4ccccc4c3C[C@H]3C(=O)N(c4ccccc4C(=O)N4CCC(C(=O)O)CC4)C(=O)N23)c1` (some centres not stated), the AC50 under setting [1] was 8.91 µM [falling, partial curve, poor fit]. In the case of `C=C(C(=O)c1ccccc1)C(C)C(=C)C(=O)c1ccccc1`, the AC50 under setting [1] was 7.31 µM [falling, partial curve].

Regarding `COc1cccc(NC(=O)[C@@H](NC(=O)N2CCn3c2nc2ccccc23)C(C)C)c1`, the AC50 under setting [1] is 10 µM [falling, partial curve]. As to `O=C1c2ccccc2C(=O)N1CN(C(=O)COc1ccccc1)c1ccc(F)cc1`, the AC50 under setting [1] is 13 µM [falling, partial curve, poor fit]. As for `O=S(=O)(NCC(c1cccnc1)N1CCN(c2ccc(F)cc2)CC1)c1ccc(F)cc1` (configuration not stated), the AC50 under setting [1] is 25.9 µM [falling, single point].

With `CCN1C(=NCCN2CCOCC2)N[C@@H](c2ccccc2)C(C(=O)OC)=C1C`, the AC50 under setting [1] was 0.447 µM [rising, partial curve, poor fit]. Same read-out and setting: in the case of `CCc1cc2c(=O)c(-c3cnn(-c4ccccc4)c3)c(C)oc2cc1OCC(=O)Nc1cccc(C)c1` it was 18.4 µM [rising, partial curve, poor fit]. The same measure, in the same setting: in the case of `O=C(CNC(=O)OCc1ccccc1)Nc1ccc(F)cc1` it was 18.4 µM [rising, single point]; in that of `NC1=NC(=O)S/C1=C\c1ccc(F)cc1`, 10 µM [falling, partial curve]. `CC1=C(C(=O)OCc2ccccc2)C(c2ccc([N+](=O)[O-])cc2)NC(=O)N1` (configuration not stated): the AC50 under setting [1] was 14.1 µM [falling, single point].

On to `S=C(N/N=C/c1ccc(Br)cc1)N1CCCCC1`, for which the AC50 under setting [1] was 35.5 µM [falling, single point].

As for `COc1ccc(-c2n[nH]c(C)c2-c2cnn(-c3ccccc3)c2)c(O)c1`, under setting [1], the AC50 was 0.259 µM [rising, full curve, poor fit]. In the case of `CCC(=O)N1CCc2cc(-c3csc(NC(=O)c4ccco4)n3)ccc21`, the AC50 under setting [1] was 0.708 µM [rising, partial curve, poor fit]. Take `Oc1[nH]c2c(Cl)cc(Cl)cc2c1N=NC(=S)NCC1CCCO1` (configuration not stated): the AC50 reads like this: under setting [1], 6.51 µM [rising, single point]; under setting [2], 3.26 µM [falling, full curve]. Consider `Cc1ccc(C)c(NC(=S)NC(NC(=O)Cc2cccc3ccccc23)C(Cl)(Cl)Cl)c1` (configuration not stated), for which, under setting [1], the AC50 is 32.6 µM [rising, partial curve, poor fit]. Same read-out and setting: with `NC(=O)c1ccc(-c2noc(-c3ccccc3F)n2)cc1` the figure was 8.2 µM [falling, partial curve, poor fit]; with `O=C(Nc1ccc(O)c(-c2nc3ccccc3s2)c1)c1cccs1`, 1.03 µM [falling, full curve, poor fit]; with `Cc1cnc(NC(=O)CSc2nc3ccccc3c(=O)[nH]2)s1`, 8.2 µM [falling, partial curve, poor fit].

The values are drawn from PubChem BioAssay AID493014 (National Center for Advancing Translational Sciences (NCATS), 2011).
